From the supplement of paper PMC10849652
This is one part of the list. Residues, ends and D or L forms follow the SMILES beside them. *: point of attachment. Cbz = O=C(OCc1ccccc1)*

By UniProt entry, the sequences of proteins in these tests, tags left out. Where a name states a change or a piece, a line headed by the entry shows the natural chain unless it says otherwise.
UniProt P05165: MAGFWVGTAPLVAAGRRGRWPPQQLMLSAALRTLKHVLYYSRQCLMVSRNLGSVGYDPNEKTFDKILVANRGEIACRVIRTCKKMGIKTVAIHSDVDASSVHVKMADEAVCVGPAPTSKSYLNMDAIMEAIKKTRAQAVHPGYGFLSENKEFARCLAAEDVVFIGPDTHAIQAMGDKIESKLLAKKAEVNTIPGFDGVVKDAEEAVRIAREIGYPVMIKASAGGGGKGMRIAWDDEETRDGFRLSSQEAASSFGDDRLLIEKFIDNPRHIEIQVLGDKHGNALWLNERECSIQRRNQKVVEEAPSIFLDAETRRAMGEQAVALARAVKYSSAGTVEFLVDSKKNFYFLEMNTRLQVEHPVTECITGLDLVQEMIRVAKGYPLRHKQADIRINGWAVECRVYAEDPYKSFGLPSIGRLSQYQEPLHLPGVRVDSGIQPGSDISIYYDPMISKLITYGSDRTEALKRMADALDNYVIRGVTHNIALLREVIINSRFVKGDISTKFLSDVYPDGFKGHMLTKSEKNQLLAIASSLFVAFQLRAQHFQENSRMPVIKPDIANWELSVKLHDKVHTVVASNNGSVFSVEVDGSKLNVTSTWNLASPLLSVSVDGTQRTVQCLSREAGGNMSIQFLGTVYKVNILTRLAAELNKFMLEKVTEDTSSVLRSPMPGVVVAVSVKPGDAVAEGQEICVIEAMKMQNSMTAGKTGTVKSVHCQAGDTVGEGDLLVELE
UniProt Q15102: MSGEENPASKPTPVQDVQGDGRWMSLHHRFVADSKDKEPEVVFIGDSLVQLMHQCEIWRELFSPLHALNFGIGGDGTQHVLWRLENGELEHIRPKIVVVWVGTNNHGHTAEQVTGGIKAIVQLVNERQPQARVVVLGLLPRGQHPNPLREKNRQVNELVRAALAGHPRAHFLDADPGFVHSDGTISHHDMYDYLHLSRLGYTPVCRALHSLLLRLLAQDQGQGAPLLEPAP
UniProt O00151: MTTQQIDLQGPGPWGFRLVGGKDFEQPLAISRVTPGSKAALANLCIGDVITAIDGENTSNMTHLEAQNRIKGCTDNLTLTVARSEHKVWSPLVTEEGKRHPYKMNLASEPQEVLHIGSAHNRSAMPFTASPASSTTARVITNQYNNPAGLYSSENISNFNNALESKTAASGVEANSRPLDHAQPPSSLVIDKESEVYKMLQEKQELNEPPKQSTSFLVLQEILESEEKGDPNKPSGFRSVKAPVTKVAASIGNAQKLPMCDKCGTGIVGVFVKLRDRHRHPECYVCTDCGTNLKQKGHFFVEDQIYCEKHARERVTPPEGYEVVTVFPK
UniProt Q9BUL8: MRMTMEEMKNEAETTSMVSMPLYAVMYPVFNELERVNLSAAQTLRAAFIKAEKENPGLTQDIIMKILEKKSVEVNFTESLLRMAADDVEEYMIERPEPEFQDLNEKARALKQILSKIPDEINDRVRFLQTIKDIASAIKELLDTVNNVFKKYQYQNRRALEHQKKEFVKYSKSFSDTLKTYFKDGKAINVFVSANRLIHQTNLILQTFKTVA
UniProt Q7L3T8: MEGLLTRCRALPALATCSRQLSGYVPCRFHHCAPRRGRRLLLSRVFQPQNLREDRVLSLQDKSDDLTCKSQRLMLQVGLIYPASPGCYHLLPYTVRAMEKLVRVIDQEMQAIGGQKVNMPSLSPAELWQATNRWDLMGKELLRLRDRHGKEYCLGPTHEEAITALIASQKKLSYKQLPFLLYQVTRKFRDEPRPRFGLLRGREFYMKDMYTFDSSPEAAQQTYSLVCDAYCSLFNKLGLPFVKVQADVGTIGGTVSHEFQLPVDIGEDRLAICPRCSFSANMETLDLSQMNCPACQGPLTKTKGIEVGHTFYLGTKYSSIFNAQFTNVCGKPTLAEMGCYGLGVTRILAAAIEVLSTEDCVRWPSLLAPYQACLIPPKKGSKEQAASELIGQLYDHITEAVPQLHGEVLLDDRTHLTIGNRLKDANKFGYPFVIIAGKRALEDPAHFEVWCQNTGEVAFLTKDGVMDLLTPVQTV
UniProt Q96GD0: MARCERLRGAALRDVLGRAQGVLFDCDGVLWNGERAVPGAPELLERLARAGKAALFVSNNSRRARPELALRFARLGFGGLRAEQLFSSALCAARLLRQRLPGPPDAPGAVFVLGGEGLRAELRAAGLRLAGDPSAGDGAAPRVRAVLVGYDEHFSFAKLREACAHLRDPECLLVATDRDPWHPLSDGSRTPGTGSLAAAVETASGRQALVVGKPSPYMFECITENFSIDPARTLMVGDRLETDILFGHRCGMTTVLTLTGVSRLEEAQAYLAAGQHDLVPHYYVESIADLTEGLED
UniProt Q9UBV8: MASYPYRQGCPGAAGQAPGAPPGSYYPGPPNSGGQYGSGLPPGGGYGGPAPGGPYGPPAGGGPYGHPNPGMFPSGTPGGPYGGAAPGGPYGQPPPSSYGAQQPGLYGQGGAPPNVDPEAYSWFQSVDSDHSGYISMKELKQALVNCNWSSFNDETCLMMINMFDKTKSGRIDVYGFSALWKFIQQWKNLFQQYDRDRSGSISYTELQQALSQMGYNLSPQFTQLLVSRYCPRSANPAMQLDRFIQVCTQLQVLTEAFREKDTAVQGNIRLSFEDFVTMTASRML
UniProt Q16822, whole entry, looked up: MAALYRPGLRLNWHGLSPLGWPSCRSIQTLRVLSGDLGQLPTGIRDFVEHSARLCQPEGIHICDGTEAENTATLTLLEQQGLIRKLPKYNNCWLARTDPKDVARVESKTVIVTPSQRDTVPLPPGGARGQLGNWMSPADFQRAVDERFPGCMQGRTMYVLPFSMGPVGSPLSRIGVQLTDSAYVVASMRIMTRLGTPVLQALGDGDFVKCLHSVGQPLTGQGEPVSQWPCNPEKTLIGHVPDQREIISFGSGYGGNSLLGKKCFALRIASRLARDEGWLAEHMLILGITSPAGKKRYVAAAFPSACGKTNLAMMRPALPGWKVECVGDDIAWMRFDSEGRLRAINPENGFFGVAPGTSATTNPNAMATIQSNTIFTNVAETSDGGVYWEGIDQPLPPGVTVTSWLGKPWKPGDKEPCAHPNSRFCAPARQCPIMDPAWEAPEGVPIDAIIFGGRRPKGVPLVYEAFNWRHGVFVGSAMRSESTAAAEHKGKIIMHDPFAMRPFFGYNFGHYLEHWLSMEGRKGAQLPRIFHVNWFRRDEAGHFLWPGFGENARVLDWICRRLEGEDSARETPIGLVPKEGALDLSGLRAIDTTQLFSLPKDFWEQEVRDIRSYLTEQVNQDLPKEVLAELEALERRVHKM
UniProt Q8N165: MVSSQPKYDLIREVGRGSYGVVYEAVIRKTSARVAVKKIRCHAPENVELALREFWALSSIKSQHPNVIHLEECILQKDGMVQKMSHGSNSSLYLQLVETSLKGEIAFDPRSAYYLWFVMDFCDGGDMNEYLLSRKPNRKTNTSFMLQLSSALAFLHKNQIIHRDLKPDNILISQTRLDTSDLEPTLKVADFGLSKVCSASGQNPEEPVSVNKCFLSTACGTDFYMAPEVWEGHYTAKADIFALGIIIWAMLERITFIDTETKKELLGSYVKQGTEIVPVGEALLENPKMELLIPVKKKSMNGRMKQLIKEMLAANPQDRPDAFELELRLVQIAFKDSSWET
UniProt P49585: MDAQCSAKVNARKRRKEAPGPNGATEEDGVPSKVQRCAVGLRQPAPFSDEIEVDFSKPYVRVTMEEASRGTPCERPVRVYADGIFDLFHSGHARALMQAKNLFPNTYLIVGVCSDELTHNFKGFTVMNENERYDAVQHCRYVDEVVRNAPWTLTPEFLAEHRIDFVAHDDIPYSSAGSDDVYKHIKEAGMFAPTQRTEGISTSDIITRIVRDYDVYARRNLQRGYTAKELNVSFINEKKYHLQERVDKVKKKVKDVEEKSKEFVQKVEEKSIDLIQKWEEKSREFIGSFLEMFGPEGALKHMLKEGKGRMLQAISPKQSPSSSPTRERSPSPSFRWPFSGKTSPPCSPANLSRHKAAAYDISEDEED
UniProt Q96KB5: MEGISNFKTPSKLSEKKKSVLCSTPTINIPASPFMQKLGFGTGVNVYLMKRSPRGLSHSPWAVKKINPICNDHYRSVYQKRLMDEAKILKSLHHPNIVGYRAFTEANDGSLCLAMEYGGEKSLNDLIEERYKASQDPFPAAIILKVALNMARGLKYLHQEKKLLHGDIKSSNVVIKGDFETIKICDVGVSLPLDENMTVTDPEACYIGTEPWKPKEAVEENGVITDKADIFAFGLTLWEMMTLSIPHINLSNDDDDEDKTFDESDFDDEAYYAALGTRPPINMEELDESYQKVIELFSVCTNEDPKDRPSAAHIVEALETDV
UniProt Q9UKL6: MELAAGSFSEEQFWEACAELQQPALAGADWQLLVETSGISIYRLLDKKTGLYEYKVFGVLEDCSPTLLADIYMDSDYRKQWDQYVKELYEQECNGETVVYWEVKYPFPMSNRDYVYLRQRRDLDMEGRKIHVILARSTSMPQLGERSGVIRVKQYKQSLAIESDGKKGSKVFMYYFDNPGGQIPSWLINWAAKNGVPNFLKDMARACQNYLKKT
UniProt Q13153, whole entry, looked up: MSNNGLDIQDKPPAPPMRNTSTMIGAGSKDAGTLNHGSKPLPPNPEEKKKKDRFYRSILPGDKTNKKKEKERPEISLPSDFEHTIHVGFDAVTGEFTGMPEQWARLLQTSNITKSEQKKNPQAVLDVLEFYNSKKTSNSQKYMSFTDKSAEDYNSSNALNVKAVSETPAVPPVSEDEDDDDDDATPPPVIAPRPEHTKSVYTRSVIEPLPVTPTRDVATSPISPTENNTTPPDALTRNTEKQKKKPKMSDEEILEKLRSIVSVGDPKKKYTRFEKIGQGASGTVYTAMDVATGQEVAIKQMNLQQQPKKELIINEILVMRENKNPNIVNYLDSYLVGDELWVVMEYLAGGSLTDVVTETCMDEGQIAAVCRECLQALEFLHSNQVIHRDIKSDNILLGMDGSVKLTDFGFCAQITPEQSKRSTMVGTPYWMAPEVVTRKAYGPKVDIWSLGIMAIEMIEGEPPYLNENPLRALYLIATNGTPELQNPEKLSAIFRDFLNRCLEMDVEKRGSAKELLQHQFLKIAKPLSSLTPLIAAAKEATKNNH
UniProt P08559, whole entry, looked up: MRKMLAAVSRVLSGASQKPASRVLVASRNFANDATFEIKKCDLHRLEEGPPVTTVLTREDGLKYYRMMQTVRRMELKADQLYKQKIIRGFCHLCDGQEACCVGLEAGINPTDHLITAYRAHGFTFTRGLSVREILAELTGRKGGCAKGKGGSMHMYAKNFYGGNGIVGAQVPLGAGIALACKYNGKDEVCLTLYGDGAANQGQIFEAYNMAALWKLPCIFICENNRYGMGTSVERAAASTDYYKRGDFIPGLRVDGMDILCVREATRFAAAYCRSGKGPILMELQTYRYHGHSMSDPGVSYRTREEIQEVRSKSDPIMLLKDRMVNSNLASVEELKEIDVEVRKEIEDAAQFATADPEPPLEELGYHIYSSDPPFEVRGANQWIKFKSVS
UniProt O95453: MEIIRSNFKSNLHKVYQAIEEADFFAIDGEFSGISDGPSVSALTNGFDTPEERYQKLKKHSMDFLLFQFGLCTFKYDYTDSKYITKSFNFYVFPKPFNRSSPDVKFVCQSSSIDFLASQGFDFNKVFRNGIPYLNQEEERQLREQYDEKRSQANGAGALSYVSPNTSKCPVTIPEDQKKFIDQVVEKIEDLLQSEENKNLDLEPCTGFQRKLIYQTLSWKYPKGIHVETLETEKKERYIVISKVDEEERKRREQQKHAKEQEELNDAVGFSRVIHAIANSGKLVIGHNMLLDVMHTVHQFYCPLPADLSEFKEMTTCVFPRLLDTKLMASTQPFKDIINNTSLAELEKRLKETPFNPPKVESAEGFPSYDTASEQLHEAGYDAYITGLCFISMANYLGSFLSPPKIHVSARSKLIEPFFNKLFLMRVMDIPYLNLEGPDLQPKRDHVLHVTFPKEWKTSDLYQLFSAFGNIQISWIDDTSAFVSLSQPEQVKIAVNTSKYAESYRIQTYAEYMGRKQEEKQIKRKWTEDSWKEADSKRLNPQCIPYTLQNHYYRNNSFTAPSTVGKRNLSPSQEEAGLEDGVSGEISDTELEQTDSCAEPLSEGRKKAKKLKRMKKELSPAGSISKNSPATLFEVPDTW
UniProt Q9Y5K3: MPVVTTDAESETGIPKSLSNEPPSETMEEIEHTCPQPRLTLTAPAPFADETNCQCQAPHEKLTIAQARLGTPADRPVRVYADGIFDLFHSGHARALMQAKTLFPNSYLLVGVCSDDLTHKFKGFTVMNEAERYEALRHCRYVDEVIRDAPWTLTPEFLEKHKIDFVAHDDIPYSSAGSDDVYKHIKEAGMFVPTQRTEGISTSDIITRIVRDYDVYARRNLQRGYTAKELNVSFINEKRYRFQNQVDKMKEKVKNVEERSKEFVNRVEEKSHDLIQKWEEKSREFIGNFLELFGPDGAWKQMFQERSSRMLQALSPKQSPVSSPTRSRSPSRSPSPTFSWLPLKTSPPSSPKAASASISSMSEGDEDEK

What was measured:
Test in all cases: log2 fold change, soluble protein after heating vs DMSO (PISA); higher = thermal stabilisation; K562 cells, 10 uM, 30 min; active = over 0.2 and 3.5 SD of the protein, either way, in both replicates (recomputed)
[1] = compound: C1COCCN1CCN2C3=CC=CC=C3N=C2NC(=O)C4=CC(=CC=C4)[N+](=O)[O-] [IRAK-1-4 Inhibitor I]
How it was run: (§1)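 Quantification of soluble protein used TMTpro 16plex LC-MS/MS, with channel sums equalised. Samples were the supernatant after 21,000xg for 90 min of pooled aliquots from K562 cells (2×10^6 cells/mL) treated with 10 μM compound for 30 min, heated for 3 min over 48°C-58°C, and extracted in PBS with 0.5% NP-40 at 4°C. Values, from duplicates, describe thermal stability against control samples on a log2 fold-change scale.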

[2] = compound: C=CC(=O)N1CCC[C@@H](n2nc(-c3ccc(Oc4ccccc4)cc3)c3c(N)ncnc32)C1 [ibrutinib]
How it was run: as §1

[3] = compound: CC(=O)c1cnc2ccc(-c3cc(Cl)c(O)c(Cl)c3)nc2c1N[C@H]1CC[C@H](CN(C)C)CC1
How it was run: as §1

[4] = compound: CC(C)(C)Cn1c(N)nc2ccc(-c3[nH]c(C(C)(C)C)nc3-c3ccc(F)cc3)nc21 [ralimetinib]
How it was run: as §1

[5] = compound: CC(C)(O)CC(=O)NCCn1ccc2ncnc(Nc3ccc(Oc4cccc(C(F)(F)F)c4)c(Cl)c3)c21
How it was run: as §1

[6] = compound: CC(C)C1=C2N=C(C=C(N2N=C1)NCC3=CC=CC=C3)NCCCCCCN
How it was run: as §1

[7] = compound: CC(C)C[C@@H](C=O)NC(=O)[C@H](CC(C)C)NC(=O)[C@H](CC(C)C)NC(=O)OCc1ccccc1
How it was run: as §1

[8] = compound: CC(C)N(C[C@H]1O[C@@H](n2cnc3c(N)ncnc32)[C@H](O)[C@@H]1O)[C@H]1C[C@@H](CCc2nc3cc(C(C)(C)C)ccc3[nH]2)C1 [pinometostat]
How it was run: as §1

[9] = compound: CC1=C(C(CC(=O)N1)C2=CC=C(C=C2)C(F)(F)F)C(=O)NC3=C(C=C4C(=C3)C=NN4)F
How it was run: as §1

[10] = compound: CC1=C(C2=C(C=C1)C(=O)C3=CC=CC=C3N2CCCN)C
How it was run: as §1

[11] = compound: CC1=C(C=C(C=C1)NC(=O)C2=CC(=CC=C2)C(C)(C)C#N)NC3=CC4=C(C=C3)N=CN(C4=O)C
How it was run: as §1

[12] = compound: CC1=C(C=C(C=C1)NC(=O)C2=CC(=CC=C2)N(C)C)NC(=O)C3=CC=C(C=C3)O
How it was run: as §1

[13] = compound: CC1=CC=C(C=C1)SC2=C3C=C(SC3=CN=C2)C(=O)N
How it was run: as §1

[14] = compound: CC1=NC(=CC=C1)C2=C(N=C(N2)C(C)(C)C)C3=CC4=NC=CN=C4C=C3
How it was run: as §1

[15] = compound: CCCCN(Cc1ccc(C(=O)NO)cc1)C(=O)Nc1ccccc1 [Nexturastat A]
How it was run: as §1

[16] = compound: CCCS(=O)(=O)Nc1ccc(F)c(C(=O)c2c[nH]c3ncc(-c4ccc(Cl)cc4)cc23)c1F [vemurafenib]
How it was run: as §1

[17] = compound: CCCS(=O)(=O)Nc1ccc(F)c(C(=O)c2c[nH]c3ncc(Cl)cc23)c1F
How it was run: as §1

[18] = compound: CCCc1cc(C)[nH]c(=O)c1CNC(=O)c1cc(-c2ccnc(N3CCN(C)CC3)c2)cc2c1cnn2C(C)C
How it was run: as §1

[19] = compound: CCN(CC)Cc1ccc2cc(COC(=O)Nc3ccc(C(=O)NO)cc3)ccc2c1 [givinostat]
How it was run: as §1

[20] = compound: CCN(CCCOc1ccc2c(Nc3cc(CC(=O)Nc4cccc(F)c4)[nH]n3)ncnc2c1)CCOP(=O)(O)O [barasertib]
How it was run: as §1

Measured: log2 fold change

PCCA (UniProt P05165)
inactive: [1] 0.144 | [2] -0.028 | [3] -0.075 | [4] -0.025 | [5] -0.079 | [6] -0.036 | [7] 0.076 | [8] 0.047 | [9] -0.04 | [10] 0.048 | [11] -0.02 | [12] 0.015 | [13] -0.025 | [14] -0.018 | [15] 0.059 | [16] 0.01 | [17] -0.015 | [18] -0.057 | [19] 0.016 | [20] -0.05

PAFAH1B3 (UniProt Q15102)
active: [10] 0.305
inactive: [1] -0.041 | [2] 0.008 | [3] -0.119 | [4] 0.009 | [5] -0.137 | [6] -0.055 | [7] -0.078 | [8] 0.023 | [11] 0 | [12] -0.096 | [13] 0.098 | [14] 0.03 | [15] 0.019 | [16] -0.014 | [17] -0.012 | [18] 0.005 | [19] -0.022 | [20] 0.035

PDLIM1 (UniProt O00151)
inactive: [1] 0.046 | [2] 0.011 | [3] 0.002 | [4] 0.009 | [5] 0.022 | [6] 0.085 | [7] 0.008 | [8] -0.019 | [9] 0.032 | [10] -0.017 | [11] 0.006 | [12] 0.003 | [13] 0.039 | [14] -0.002 | [15] -0.053 | [16] -0.008 | [17] 0.042 | [18] -0.025 | [19] -0.04 | [20] -0.009

PDCD10 (UniProt Q9BUL8)
inactive: [1] 0.027 | [2] -0.091 | [3] -0.174 | [4] -0.026 | [5] -0.06 | [6] -0.018 | [7] 0.023 | [8] -0.012 | [9] 0.007 | [10] 0.025 | [11] -0.119 | [12] -0.003 | [13] 0.036 | [14] 0.063 | [15] 0.007 | [16] 0.033 | [17] 0.063 | [18] -0.087 | [19] 0.016 | [20] 0.012

PARS2 (UniProt Q7L3T8)
inactive: [1] -0.089 | [2] 0.059 | [3] 0.038 | [4] 0.06 | [5] 0.031 | [6] -0.04 | [7] -0.005 | [8] -0.011 | [9] -0.008 | [10] 0.111 | [11] 0.037 | [12] -0.031 | [13] -0.021 | [14] -0.011 | [15] 0.011 | [16] 0.004 | [17] -0.046 | [18] 0.033 | [19] 0.019 | [20] -0.019

PDXP (UniProt Q96GD0)
inactive: [1] 0.049 | [2] -0.011 | [3] 0.009 | [4] -0.059 | [5] -0.044 | [6] 0.046 | [7] 0.021 | [8] -0.009 | [9] 0.014 | [10] 0.037 | [11] -0.021 | [12] -0.01 | [13] 0.03 | [14] -0.011 | [15] -0.113 | [16] -0.01 | [17] -0.004 | [18] -0.062 | [19] -0.03 | [20] 0.015

PEF1 (UniProt Q9UBV8)
inactive: [1] 0.003 | [2] -0.002 | [3] -0.03 | [4] -0.057 | [5] -0.092 | [6] -0.094 | [7] -0.085 | [8] -0.041 | [10] 0.085 | [11] -0.011 | [12] -0.075 | [13] 0.027 | [14] 0.013 | [15] 0.032 | [16] 0.008 | [17] 0.073 | [18] -0.045 | [19] 0.022 | [20] 0.122

PCK2 (UniProt Q16822)
inactive: [1] -0.029 | [2] 0.021 | [3] -0.013 | [4] -0.059 | [5] -0.019 | [6] 0.063 | [7] 0.035 | [8] -0.011 | [10] 0.053 | [11] -0.002 | [12] -0.064 | [13] -0.008 | [14] 0.045 | [15] -0.065 | [16] -0.006 | [17] 0.002 | [18] 0.014 | [19] -0.13 | [20] 0.011

PDIK1L (UniProt Q8N165)
inactive: [1] -0.006 | [2] -0.205 | [4] -0.173 | [5] 0.032 | [6] -0.139 | [7] 0.091 | [8] -0.012 | [10] -0.197 | [11] -0.079 | [12] 0.031 | [13] -0.265 | [14] 0.068 | [15] -0.077 | [16] 0.026 | [17] 0 | [18] 0.03 | [19] 0.034 | [20] 0.055
active: [3] -0.693

PCYT1A (UniProt P49585)
inactive: [1] 0.081 | [2] -0.032 | [3] -0.007 | [4] -0.072 | [5] -0.019 | [6] -0.163 | [7] 0.084 | [8] -0.005 | [10] -0.137 | [11] -0.049 | [12] -0.038 | [13] -0.045 | [14] 0.035 | [15] -0.034 | [16] 0.052 | [17] 0.043 | [18] -0.092 | [19] -0.024 | [20] 0.044

PBK (UniProt Q96KB5)
inactive: [1] -0.142 | [2] -0.059 | [3] 0 | [4] 0.111 | [5] -0.144 | [6] -0.286 | [7] 0.06 | [8] 0.071 | [10] -0.08 | [11] 0.01 | [12] -0.056 | [13] 0.069 | [14] -0.001 | [15] 0.037 | [16] 0.124 | [17] 0.14 | [18] 0.144 | [19] 0.143 | [20] 0.145

PCTP (UniProt Q9UKL6)
inactive: [1] -0.009 | [2] -0.018 | [3] 0.054 | [4] -0.081 | [5] -0.091 | [7] -0.012 | [8] -0.013 | [10] 0.005 | [11] -0.007 | [12] 0.004 | [13] 0.052 | [14] 0.039 | [15] -0.003 | [16] 0.005 | [17] 0.066 | [18] 0.026 | [19] -0.035 | [20] 0.013
active: [6] -0.266

PAK1 isoform 2 (UniProt Q13153)
inactive: [1] 0.018 | [2] 0.048 | [3] 0.158 | [4] -0.066 | [5] -0.025 | [6] 0 | [7] -0.046 | [8] -0.038 | [10] 0.051 | [11] 0.035 | [12] -0.072 | [13] 0.114 | [14] 0.003 | [15] -0.01 | [16] 0.019 | [17] -0.036 | [18] -0.075 | [19] -0.054 | [20] -0.001

PDHA1 isoform 4 (UniProt P08559)
inactive: [1] -0.09 | [2] -0.059 | [3] 0.081 | [4] 0.047 | [5] -0.003 | [6] -0.041 | [7] -0.008 | [8] 0.148 | [9] 0.027 | [10] 0.041 | [11] 0.06 | [12] -0.032 | [13] -0.029 | [14] -0.062 | [15] 0.172 | [16] -0.064 | [17] -0.047 | [18] 0.102 | [19] 0.051 | [20] -0.026

Fetched one by one from the entries so far, 2 records:
PCYT1A (UniProt P49585)
inactive: [1] 0.081 | [2] -0.032 | [3] -0.007 | [4] -0.072 | [5] -0.019 | [6] -0.163 | [7] 0.084 | [8] -0.005 | [10] -0.137 | [11] -0.049 | [12] -0.038 | [13] -0.045 | [14] 0.035 | [15] -0.034 | [16] 0.052 | [17] 0.043 | [18] -0.092 | [19] -0.024 | [20] 0.044

PAK1 isoform 2 (UniProt Q13153)
inactive: [1] 0.018 | [2] 0.048 | [3] 0.158 | [4] -0.066 | [5] -0.025 | [6] 0 | [7] -0.046 | [8] -0.038 | [10] 0.051 | [11] 0.035 | [12] -0.072 | [13] 0.114 | [14] 0.003 | [15] -0.01 | [16] 0.019 | [17] -0.036 | [18] -0.075 | [19] -0.054 | [20] -0.001

(further entries)

PARN (UniProt O95453)
inactive: [1] 0.002 | [2] -0.047 | [3] -0.092 | [4] -0.013 | [5] -0.02 | [6] -0.025 | [7] 0.018 | [8] -0.018 | [10] 0.033 | [11] -0.038 | [12] -0.004 | [13] 0.004 | [14] 0.013 | [15] -0.069 | [16] 0 | [17] 0.043 | [18] -0.058 | [19] 0.059 | [20] 0.057

PCYT1B (UniProt Q9Y5K3)
inactive: [1] 0.014 | [2] -0.029 | [3] -0.072 | [4] 0.011 | [5] 0.001 | [6] -0.172 | [7] 0.027 | [8] -0.011 | [10] -0.12 | [11] 0.007 | [12] 0.022 | [13] 0.011 | [14] 0.034 | [15] -0.06 | [16] 0.022 | [17] 0.049 | [18] -0.031 | [19] 0.038 | [20] 0.048
